In paper PMC4351826 one finds binding data, which are given here for two molecules.

These are yes or no findings as the source states them, for the method shown. Binding seen in cells or lysates may run through a third protein. These calls come from enrichment with a bait or labelling near it, and not all partners need be listed. Sequences can lack the tags named with a protein.

The target in this assay is T1, DRB2-Cmyc (Arabidopsis thaliana) (UniProt Q9SKN2).
T1 sequence: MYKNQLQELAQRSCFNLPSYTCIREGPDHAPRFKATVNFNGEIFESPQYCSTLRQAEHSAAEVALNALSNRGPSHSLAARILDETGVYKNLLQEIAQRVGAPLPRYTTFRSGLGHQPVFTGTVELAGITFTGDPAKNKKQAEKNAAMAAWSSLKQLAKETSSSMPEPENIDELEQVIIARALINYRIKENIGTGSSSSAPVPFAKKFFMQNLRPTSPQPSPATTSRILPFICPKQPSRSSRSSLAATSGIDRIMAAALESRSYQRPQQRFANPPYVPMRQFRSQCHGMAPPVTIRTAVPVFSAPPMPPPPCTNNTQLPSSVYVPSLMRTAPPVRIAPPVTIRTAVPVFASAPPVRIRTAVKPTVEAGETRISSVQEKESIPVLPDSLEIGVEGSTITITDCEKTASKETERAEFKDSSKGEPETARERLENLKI
As to the kind of experiment: affinity purification with mass spectrometry; Cmyc IP (Miltenyi columns) from 1.5 g of mixed floral tissues of the DRB2-Cmyc line, Col-0 as control; SDS-PAGE, specific bands cut, nanoLC-MS/MS.

B1: CAND1 (CULLIN ASSOCIATED AND …ON DISSOCIATED) (protein, UniProt Q8L5Y6 1-1219)
chain: MANLQVSGILEKFQMTGKDKDYRYMATSDLLNELNKDSFKIDLDLEVRLSSIILQQLDDVAGDVSGLAVKCLAPLVKKVGEERIVEMTNKLCDKLLHGKDQHRDTASIALRTVVAQIAPTLAPSILVTLTPQMIGGISGQGMSSGIKCECLEIMCDVVQKYGSLMTDDHEKLLNTLLLQLGCNQATVRKKTVTCIASLASSLSDDLLAKATVEVVKNLSNRNAKSEITRTNIQMIGALCRAVGYRFGTHLGNTVPVLINYCTSASENDEELREYSLQALESFLLRCPRDISPYCDEILNLTLEYISYDPNFTDNMEEDTDNETLEDEEDDESANEYTDDEDASWKVRRAAAKCLAGLIVSRSEMLTKVYQEACPKLIDRFKEREENVKMDVFNTFIDLLRQTGNVTKGQTDTDESSPKWLLKQEVSKIVKSINRQLREKSVKTKVGAFSVLRELVVVLPDCLADHIGSLVPGIERALNDKSSTSNLKIEALVFTKLVLASHAPPVFHPYIKALSSPVLAAVGERYYKVTAEALRVCGELVRVVRPSTAGMGFDFKPFVHPIYNAIMSRLTNQDQDQEVKECAITCMGLVISTFGDQLRAELPSCLPVLVDRMGNEITRLTAVKAFSVIATSPLHINLSCVLDHLIAELTGFLRKANRVLRQATLITMNTLVTAYGDKIGSEAYEVILVELSSLISVSDLHMTALALELCCTLMTGKSCSENISLAVRNKVLPQALTLVKSPLLQGQALLDLQKFFEALVYHANTSFYTLLESLLSCAKPSPQSGGVPKQALYSIAQCVAVLCLAAGDKNCSSTVKMLMEILKDDSGTNSAKQHLALLSLGEIGRRKDLSAHAGIETIVIESFQSPFEEIKSAASYALGNIAVGNLSNYLPFILDQIDNQQKKQYILLHSLKEVIVRQSVDKADFQNSSVEKILALLFNHCESEEEGVRNVVAECLGKMALIEPEKLVPALQVRTTSPAAFTRATVVTAVKYSVVERPEKLDEIIFPQISSFLMLIKDGDRHVRRAAVSALSTFAHYKPNLIKGLLPELLPLLYDQTVIKKELIRTVDLGPFKHVVDDGLELRKAAFECVFTLVDSCLDQVNPSSFIVPFLKSGLEDHYDLKMLCHLILSLLADKCPSAVLAVLDSLVEPLHKTISFKPKQDAVKQEHDRNEDMIRSALRAISSLDRINGVDYSHKFKGLMGDMKRSVPLWEKFQTIRNE
Regarding B1, the binding entry is “binds”.

B2: TPL (TOPLESS) (protein, UniProt Q94AI7 1-1131)
chain: MSSLSRELVFLILQFLDEEKFKETVHKLEQESGFFFNMKYFEDEVHNGNWDEVEKYLSGFTKVDDNRYSMKIFFEIRKQKYLEALDKHDRPKAVDILVKDLKVFSTFNEELFKEITQLLTLENFRENEQLSKYGDTKSARAIMLVELKKLIEANPLFRDKLQFPTLRNSRLRTLINQSLNWQHQLCKNPRPNPDIKTLFVDHSCGPPNGARAPSPVNNPLLGGIPKAGGFPPLGAHGPFQPTASPVPTPLAGWMSSPSSVPHPAVSAGAIALGGPSIPAALKHPRTPPTNASLDYPSADSEHVSKRTRPMGISDEVNLGVNMLPMSFSGQAHGHSPAFKAPDDLPKTVARTLSQGSSPMSMDFHPIKQTLLLVGTNVGDIGLWEVGSRERLVQKTFKVWDLSKCSMPLQAALVKEPVVSVNRVIWSPDGSLFGVAYSRHIVQLYSYHGGEDMRQHLEIDAHVGGVNDISFSTPNKQLCVITCGDDKTIKVWDAATGVKRHTFEGHEAPVYSVCPHYKENIQFIFSTALDGKIKAWLYDNMGSRVDYDAPGRWCTTMAYSADGTRLFSCGTSKDGESFIVEWNESEGAVKRTYQGFHKRSLGVVQFDTTKNRYLAAGDDFSIKFWDMDAVQLLTAIDGDGGLQASPRIRFNKEGSLLAVSGNENVIKIMANSDGLRLLHTFENISSESSKPAINSIAAAAAAAATSAGHADRSANVVSIQGMNGDSRNMVDVKPVITEESNDKSKIWKLTEVSEPSQCRSLRLPENLRVAKISRLIFTNSGNAILALASNAIHLLWKWQRNERNATGKATASLPPQQWQPASGILMTNDVAETNPEEAVPCFALSKNDSYVMSASGGKISLFNMMTFKTMATFMPPPPAATFLAFHPQDNNIIAIGMDDSTIQIYNVRVDEVKSKLKGHSKRITGLAFSNVLNVLVSSGADAQLCVWNTDGWEKQRSKVLPLPQGRPNSAPSDTRVQFHQDQAHFLVVHETQLAIYETTKLECMKQWAVRESLAPITHATFSCDSQLVYASFMDATVCVFSSANLRLRCRVNPSAYLPASLSNSNVHPLVIAAHPQEPNMFAVGLSDGGVHIFEPLESEGKWGVAPPAENGSASGAPTAPSVGASASDQPQR
In the case of B2, the binding entry is “binds”.
